These are yes or no findings as the source states them, for the method shown. In cells and extracts the contact can be indirect. Some binding calls cover weakened binding; strength is not graded here. Where a sequence is shown, tags or fusion partners need not be part of it.
Experiments:
EGFP-fused BROMI (human) = biological target: T1, EGFP-fused BROMI (human) (UniProt Q96NH3); test: co-IP; the beads of the VIP assay (EGFP-fused protein precipitated with GST-tagged anti-GFP Nb from HEK293T lysates) subjected to SDS-PAGE and immunoblotting with anti-mChe or anti-GFP antibody
T1 sequence: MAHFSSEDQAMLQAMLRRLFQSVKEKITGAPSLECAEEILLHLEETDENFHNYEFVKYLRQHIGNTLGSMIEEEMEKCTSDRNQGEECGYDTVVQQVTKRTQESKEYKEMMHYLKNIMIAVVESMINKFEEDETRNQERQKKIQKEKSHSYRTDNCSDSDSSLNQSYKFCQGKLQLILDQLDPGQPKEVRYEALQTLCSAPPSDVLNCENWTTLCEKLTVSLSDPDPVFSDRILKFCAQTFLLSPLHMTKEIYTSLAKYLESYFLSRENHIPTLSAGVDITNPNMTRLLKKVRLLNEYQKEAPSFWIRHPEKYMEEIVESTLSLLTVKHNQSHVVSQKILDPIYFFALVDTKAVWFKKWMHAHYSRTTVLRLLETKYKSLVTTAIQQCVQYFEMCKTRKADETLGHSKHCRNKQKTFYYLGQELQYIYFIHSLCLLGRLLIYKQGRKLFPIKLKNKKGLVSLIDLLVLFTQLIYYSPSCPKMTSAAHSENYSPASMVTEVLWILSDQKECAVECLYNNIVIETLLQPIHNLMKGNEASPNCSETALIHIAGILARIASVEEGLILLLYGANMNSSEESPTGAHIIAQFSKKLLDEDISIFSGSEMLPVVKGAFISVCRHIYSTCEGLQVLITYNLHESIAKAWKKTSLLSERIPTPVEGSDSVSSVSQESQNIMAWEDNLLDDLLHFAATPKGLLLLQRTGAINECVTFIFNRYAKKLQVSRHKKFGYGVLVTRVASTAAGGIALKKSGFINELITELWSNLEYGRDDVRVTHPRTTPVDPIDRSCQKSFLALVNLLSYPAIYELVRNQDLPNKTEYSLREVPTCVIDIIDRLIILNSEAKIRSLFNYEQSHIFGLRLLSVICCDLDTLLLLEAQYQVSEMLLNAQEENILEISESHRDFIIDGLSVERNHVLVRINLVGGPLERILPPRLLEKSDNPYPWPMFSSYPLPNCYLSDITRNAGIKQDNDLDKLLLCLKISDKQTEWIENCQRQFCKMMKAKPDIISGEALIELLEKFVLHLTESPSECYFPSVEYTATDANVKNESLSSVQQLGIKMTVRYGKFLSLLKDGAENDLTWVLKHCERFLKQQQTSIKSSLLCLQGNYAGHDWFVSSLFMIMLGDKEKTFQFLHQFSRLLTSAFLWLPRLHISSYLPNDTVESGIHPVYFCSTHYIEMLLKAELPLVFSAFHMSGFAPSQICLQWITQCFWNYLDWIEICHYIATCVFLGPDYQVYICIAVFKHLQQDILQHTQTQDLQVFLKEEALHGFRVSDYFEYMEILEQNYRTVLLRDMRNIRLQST

[1] = biological target: T2, EGFP-fused BROMI(182–1,298) (human) (UniProt Q96NH3); test: as above
T2 sequence: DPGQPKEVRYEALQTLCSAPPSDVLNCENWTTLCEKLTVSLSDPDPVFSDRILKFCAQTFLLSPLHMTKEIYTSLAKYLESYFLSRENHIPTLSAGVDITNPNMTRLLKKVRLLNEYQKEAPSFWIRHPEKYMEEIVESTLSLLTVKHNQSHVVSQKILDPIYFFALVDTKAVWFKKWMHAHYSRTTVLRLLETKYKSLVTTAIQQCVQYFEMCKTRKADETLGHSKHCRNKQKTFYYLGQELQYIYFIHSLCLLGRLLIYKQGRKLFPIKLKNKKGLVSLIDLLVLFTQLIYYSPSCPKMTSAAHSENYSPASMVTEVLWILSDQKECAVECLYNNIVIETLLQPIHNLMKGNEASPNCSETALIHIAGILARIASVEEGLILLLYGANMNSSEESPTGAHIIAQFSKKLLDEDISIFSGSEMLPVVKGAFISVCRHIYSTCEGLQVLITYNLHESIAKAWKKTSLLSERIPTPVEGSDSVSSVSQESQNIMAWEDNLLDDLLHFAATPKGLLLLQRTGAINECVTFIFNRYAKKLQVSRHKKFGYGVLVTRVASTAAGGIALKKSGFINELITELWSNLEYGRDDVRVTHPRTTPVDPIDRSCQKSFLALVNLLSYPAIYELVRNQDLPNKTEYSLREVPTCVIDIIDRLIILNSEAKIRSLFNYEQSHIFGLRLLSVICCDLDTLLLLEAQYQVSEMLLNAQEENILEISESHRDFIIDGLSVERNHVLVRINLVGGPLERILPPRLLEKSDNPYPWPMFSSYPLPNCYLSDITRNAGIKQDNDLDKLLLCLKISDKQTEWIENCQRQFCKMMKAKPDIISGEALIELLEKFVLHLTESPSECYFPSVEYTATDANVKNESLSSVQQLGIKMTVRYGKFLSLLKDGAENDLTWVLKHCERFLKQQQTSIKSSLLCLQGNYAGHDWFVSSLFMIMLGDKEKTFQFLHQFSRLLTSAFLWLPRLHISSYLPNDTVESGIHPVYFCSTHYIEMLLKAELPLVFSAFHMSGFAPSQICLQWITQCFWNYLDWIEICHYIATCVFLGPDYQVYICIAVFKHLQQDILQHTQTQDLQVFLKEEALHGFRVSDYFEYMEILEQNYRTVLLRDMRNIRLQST

- binding (EGFP-fused BROMI (human)): binds
- binding [1]: binds
Substance: CCRK-mChe (from UniProt Q8IZL9-1 1-346)

Reference: paper PMC8500422
